Reference: patent publication US20250161263A1, “USE OF A COMPOUND, PHARMACEUTICAL FORMULATION, METHOD OF TREATMENT FOR ASTHMA AND/OR COPD, AND COMPOUND” (FUNDAÇÃO OSWALDO CRUZ, priority 2022, published 2025)
For at least one compound, name, drawing or mass did not settle the structure.

How the values were obtained:
Type in all cases: in vivo, mice (BALB/c)
IL-13 = IL-13 in bronchoalveolar lavage by ELISA, airway hypersensitivity model; conditions: 30 mg/kg/ip
Protocol: (§1) The ovalbumin-induced airway hypersensitivity model (BOLANDI et al., 2021), used as the basis for the present findings, induces pathophysiological and structural changes which characterize respiratory diseases such as asthma and chronic obstructive pulmonary disease (COPD).
(§2) The mice were divided into groups of six animals and immunized with a subcutaneous injection of 10 μg of ovalbumin (Sigma, St. Louis, MO) diluted in 2 mg/ml alum (Alunmlmject; Pierce, Rockford, IL), followed by of a booster injection 14 days later. From day 28 onwards, the mice were placed in an acrylic box and subjected to inhalation exposure to ovalbumin (1%) for 15 minutes per day, for five consecutive days. The ovalbumin solution was nebulized using an ultrasonic inhaler (RespiraMax, Brazil). […]
(§3) The animals were euthanized with a lethal dose of ketamine and xylazine (300 mg/Kg and 30 mg/Kg, respectively via i.p.) 24 hours after the last challenge to collect bronchoalveolar lavage (BAL). […] The first wash was centrifuged and the supernatant stored at −70° C. for subsequent quantification of cytokines by ELISA. […]
(§4) The bronchoalveolar lavage supernatant stored at −70° C. was thawed and used to quantify the cytokines IL-4, IL-5 and IL-13 by the ELISA method, using specific kits (R&D System, Minnesota, MN, USA) for mice, following the manufacturer's instructions (VASCONCELOS, 2009).

IL-4 = IL-4 in bronchoalveolar lavage by ELISA, airway hypersensitivity model; conditions: 30 mg/kg/ip
Protocol: as §1, §2, §3, §4

[1] = system: eosinophils, neutrophils and mononuclear cells in bronchoalveolar lavage; assay: Differential count of eosinophils, neutrophils and mononuclear cells in bronchoalveolar lavage, airway hypersensitivity model; conditions: 30 mg/kg/ip
Protocol: as §1
as §2, with “Brazil). The protocol used to induce airway hypersensitivity was performed as previously described (POSSA, 2013). The naive group was challenged with saline only.” for “Brazil).”
as §3

[2] = system: total inflammatory cells in bronchoalveolar lavage (airway hypersensitivity model in mice); assay: Total inflammatory cell count in bronchoalveolar lavage, ovalbumin-induced airway hypersensitivity model; conditions: 30 mg/kg intraperitoneally, 5 consecutive days, vs vehicle
Protocol: as §1
as §2, with “Brazil). The protocol used to induce airway hypersensitivity was performed as previously described (POSSA, 2013). The naive group was challenged with saline only.” for “Brazil).”
The animals were euthanized with a lethal dose of ketamine and xylazine (300 mg/Kg and 30 mg/Kg, respectively via i.p.) 24 hours after the last challenge to collect bronchoalveolar lavage (BAL). Intratracheal instillation of 1 ml of ice-cold PBS was performed, followed by BAL collection, and this procedure was repeated. The first wash was centrifuged and the supernatant stored at −70° C. for subsequent quantification of cytokines by ELISA. […]

[3] = system: PAS-labeled mucus-producing goblet cells of the bronchiolar epithelium; assay: Goblet cell metaplasia / mucus production, PAS-stained lung sections, airway hypersensitivity model; conditions: systemic (FIG. 5: 30 mg/kg/ip)
Protocol: as §1, §2
After collecting the bronchoalveolar lavage, lung perfusion was performed intratracheally with 1 ml formalin (4%) and, subsequently, the right lobe of the lungs of each animal was removed and fixed in the same solution for histological and morphometric analysis. The sections were stained with hematoxylin and eosin to quantify inflammatory cells by optical microscopy according to the number of cores present in the fields with the largest population of cells. To quantify mucus production, staining was performed with periodic acid-Schiff (PAS) and the marked areas were quantified. […]

IL-5 = IL-5 in bronchoalveolar lavage by ELISA, airway hypersensitivity model; conditions: 30 mg/kg/ip
Protocol: as §1, §2, §3, §4

[4] = system: inflammatory cells in lung tissue; assay: Pulmonary inflammatory infiltrate, HE-stained lung sections, airway hypersensitivity model; conditions: 30 mg/kg/ip

C[C@@H]1C[C@H]2[C@@H]3CCC4=CC(=O)C=C[C@]4(C)[C@@]3(F)[C@@H](O)C[C@]2(C)[C@@]1(O)C(=O)CO [dexamethasone, reference compound]
level of IL-13 in BAL (IL-13): reduction | level of IL-4 in BAL (IL-4): reduction | numbers of eosinophils in the BAL [1]: reduction | numbers of neutrophils in the BAL [1]: reduction | number of inflammatory cells in the BAL [2]: significant inhibition | presence of mucus in PAS-stained Goblet cells [3]: reduced | level of IL-5 in BAL (IL-5): reduction | pulmonary inflammatory infiltrate [4]: able to reduce
